In patent publication US12428648B2, “Compositions comprising peptides that block transmission of orthotospoviruses” (priority 2019, dated 2025):
At least one peptide structure holds a part that was inferred or is arguable (an end, a ring closure or a residue). Some entries repeat one wording, which the source may state once for all of them. No end group written: not given here.

How the values were obtained:
[1] = system: Neohydatothrips variabilis; experiment: Thrips feeding rate on soybean seedlings after peptide feeding; assay type: in vivo; settings: for Feeding rate (mean ± standard deviation): mean of three experiments, percentage of thrips feeding
[2] = system: soybean vein necrosis virus (SVNV); experiment: Transmission inhibition assay: SVNV infection of soybean seedlings by single thrips fed peptide before virus acquisition; assay type: in vivo, Neohydatothrips variabilis; settings: for Infection rate (mean ± standard deviation): mean of three experiments, percentage of virus infection; for effect on virus transmission compared with control, in words: thrips fed peptide prior to virus acquisition
[3] = Experiment 1, peptide 10 nM in feeding buffer, larvae fed 5 h, then 16 h SVNV acquisition, 20 d post transfer
[4] = Experiment 1, peptide 10 nM, 5 h feeding before SVNV acquisition

Row | Sequence | Feeding: number of plants with feeding scars/plants exposed to thrips [1, 3] | Feeding (percentile) [1, 4] | Feeding (percentile) ([1]; Experiment 2) | Feeding: number of plants with feeding scars/plants exposed to thrips ([1]; Experiment 2) | Feeding (percentile) ([1]; Experiment 3) | Feeding: number of plants with feeding scars/plants exposed to thrips ([1]; Experiment 3) | Feeding (percentile) ([1]; Total of experiments 1-3) | Feeding: number of plants with feeding scars/plants exposed to thrips ([1]; Total of experiments 1-3) | Feeding rate (mean ± standard deviation) [1] | Infection: number of SVNV-infected plants/plants with feeding scars [2, 3] | Infection (percentile) [2, 4] | Infection (percentile) ([2]; Experiment 2) | Infection: number of SVNV-infected plants/plants with feeding scars ([2]; Experiment 2) | Infection (percentile) ([2]; Experiment 3) | Infection: number of SVNV-infected plants/plants with feeding scars ([2]; Experiment 3) | Infection (percentile) ([2]; Total of experiments 1-3) | Infection: number of SVNV-infected plants/plants with feeding scars ([2]; Total of experiments 1-3) | Infection rate (mean ± standard deviation) [2] | effect on virus transmission compared with control, in words [2] | reduction of infection rate compared with the control group ([2]; control: thrips fed on feeding buffer prior to virus exposure) [%]
1 | NASIRADHEVSQE [RAD] | 52/60 | (86.7%) | (78.8%) | 26/33 | (75.9%) | 41/54 | (81%) | 119/147 | 80.47 ± 5.59 | 14/52 | (26.9%) | (34.6%) | 9/26 | (31.7%) | 13/41 | (30.3%) | 36/119 | 31.07 ± 3.89 | did not exhibit significant lower levels on virus infection rate | –
2 | NASIAAAHEVSQE [AAA] | 26/100 | (26%) | (54.2%) | 65/120 | (96.7%) | 58/60 | (53.2%) | 149/280 | 58.97 ± 35.59 | 5/26 | (19.2%) | (9.2%) | 6/65 | (12.1%) | 7/58 | (12.1%) | 18/149 | 13.50 ± 5.14 | comparable to that of RGD/Asn229 | 68.3
3 | NASIAGDHEVSQE [AGD] | 48/60 | (80%) | (80%) | 28/35 | (76.8%) | 43/56 | (78.8%) | 119/151 | 78.93 ± 1.85 | 16/48 | (33.3%) | (39.3%) | 11/28 | (34.9%) | 15/43 | (35.3%) | 42/119 | 35.83 ± 3.11 | did not exhibit significant lower levels on virus infection rate | –
4 | NASIRGAHEVSQE [RGA] | 44/60 | (73.3%) | (75.9%) | 41/54 | (72.5%) | 29/40 | (74%) | 114/154 | 73.9 ± 1.78 | 15/44 | (34.1%) | (31.7%) | 13/41 | (34.5%) | 10/29 | (33.3%) | 38/114 | 33.43 ± 1.51 | did not exhibit significant lower levels on virus infection rate | –
